Data published in the supplement of paper PMC10849652.
This is one part of the list.

The chains behind the UniProt entries cited, without tags or fusion partners. Where a name states a change or a piece, a line headed by the entry shows the natural chain unless it says otherwise.
UniProt P00156: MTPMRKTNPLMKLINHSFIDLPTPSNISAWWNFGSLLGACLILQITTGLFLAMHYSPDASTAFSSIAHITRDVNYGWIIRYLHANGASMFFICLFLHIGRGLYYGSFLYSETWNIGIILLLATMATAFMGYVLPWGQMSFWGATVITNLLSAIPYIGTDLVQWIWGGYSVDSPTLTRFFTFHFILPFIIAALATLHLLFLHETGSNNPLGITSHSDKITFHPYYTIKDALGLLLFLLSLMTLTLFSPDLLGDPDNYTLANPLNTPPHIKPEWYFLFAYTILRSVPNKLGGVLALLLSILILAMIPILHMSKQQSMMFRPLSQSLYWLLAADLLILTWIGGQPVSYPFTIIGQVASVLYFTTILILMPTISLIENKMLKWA
UniProt Q9Y3D2: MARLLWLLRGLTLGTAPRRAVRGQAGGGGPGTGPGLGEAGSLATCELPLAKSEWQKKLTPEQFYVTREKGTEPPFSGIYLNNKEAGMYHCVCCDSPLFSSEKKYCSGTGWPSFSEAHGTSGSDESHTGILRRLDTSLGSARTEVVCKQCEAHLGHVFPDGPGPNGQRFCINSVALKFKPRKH
UniProt P03905, whole entry, looked up: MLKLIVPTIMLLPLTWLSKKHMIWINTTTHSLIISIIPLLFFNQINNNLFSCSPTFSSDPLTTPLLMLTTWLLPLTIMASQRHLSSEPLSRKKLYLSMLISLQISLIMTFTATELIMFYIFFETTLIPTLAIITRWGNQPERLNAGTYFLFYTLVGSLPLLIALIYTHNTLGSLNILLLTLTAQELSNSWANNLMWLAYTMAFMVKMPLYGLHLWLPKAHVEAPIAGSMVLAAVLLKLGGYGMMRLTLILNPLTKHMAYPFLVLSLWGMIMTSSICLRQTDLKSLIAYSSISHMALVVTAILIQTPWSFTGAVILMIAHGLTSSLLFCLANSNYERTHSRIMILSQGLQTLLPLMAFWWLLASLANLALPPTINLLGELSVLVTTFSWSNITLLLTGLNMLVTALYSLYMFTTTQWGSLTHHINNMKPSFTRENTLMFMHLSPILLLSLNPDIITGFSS
UniProt Q9UGC7: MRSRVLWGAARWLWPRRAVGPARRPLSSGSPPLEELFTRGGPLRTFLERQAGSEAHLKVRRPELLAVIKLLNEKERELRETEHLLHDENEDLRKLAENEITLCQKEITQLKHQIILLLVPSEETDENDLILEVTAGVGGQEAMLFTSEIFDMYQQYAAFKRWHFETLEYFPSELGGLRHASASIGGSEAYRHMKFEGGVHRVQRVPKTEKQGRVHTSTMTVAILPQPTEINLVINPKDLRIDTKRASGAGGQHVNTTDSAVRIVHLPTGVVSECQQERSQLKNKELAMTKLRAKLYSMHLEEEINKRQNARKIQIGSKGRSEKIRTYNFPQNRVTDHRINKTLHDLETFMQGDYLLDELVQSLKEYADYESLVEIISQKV
UniProt Q15800: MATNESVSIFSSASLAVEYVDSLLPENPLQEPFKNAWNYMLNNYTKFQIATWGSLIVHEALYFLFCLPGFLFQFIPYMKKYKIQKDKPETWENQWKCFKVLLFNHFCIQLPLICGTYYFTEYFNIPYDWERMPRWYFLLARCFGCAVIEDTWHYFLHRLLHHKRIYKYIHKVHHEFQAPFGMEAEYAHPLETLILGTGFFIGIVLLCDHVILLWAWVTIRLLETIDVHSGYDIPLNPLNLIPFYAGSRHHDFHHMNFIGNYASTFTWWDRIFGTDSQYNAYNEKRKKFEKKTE
UniProt Q8NCE2: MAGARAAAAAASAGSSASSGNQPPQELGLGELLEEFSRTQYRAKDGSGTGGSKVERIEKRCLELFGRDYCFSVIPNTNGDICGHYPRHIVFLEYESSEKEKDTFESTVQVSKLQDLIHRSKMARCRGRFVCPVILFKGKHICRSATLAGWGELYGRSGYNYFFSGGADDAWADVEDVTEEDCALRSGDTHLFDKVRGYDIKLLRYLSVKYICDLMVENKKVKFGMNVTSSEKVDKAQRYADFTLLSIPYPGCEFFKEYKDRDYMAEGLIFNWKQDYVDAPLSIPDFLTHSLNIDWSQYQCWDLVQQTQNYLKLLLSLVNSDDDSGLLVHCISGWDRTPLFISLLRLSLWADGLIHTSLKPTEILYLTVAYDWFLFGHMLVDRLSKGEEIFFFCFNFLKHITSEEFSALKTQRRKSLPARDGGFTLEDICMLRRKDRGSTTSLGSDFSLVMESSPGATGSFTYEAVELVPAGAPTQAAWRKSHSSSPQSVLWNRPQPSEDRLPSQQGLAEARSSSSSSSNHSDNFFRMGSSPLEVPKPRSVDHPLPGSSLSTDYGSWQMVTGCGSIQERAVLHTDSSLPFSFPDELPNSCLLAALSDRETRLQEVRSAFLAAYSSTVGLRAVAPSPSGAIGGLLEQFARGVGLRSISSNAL

How the values were obtained:
Test in all cases: log2 fold change, soluble protein after heating vs DMSO (PISA); higher = thermal stabilisation; K562 lysate, 10 uM; active = over 0.2 and 3.5 SD of the protein, either way, in both replicates (recomputed)
[1] = compound: CS(=O)(=O)CCNCc1ccc(-c2ccc3ncnc(Nc4ccc(OCc5cccc(F)c5)c(Cl)c4)c3c2)o1 [lapatinib]
How it was run: (§1)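 Following dounce homogenisation of K562 pellets in PBS pH 7.4 with 1 mM MgCl2, crude extract at 1 mg/mL protein was incubated for 30 min with 10 μM compound. Aliquots were then heated for 3 min over 48°C-58°C and pooled, NP-40 was added to 0.5% at 4°C, and soluble protein was recovered as the supernatant at 21,000xg for 90 min. Channel-sum-equalised TMTpro 16plex LC-MS/MS quantified this protein. Each value, from duplicates, is a log-two fold change in thermal stability relative to solvent controls.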

[2] = compound: CS(=O)(=O)N1CCN(Cc2cc3nc(-c4cccc5[nH]ncc45)nc(N4CCOCC4)c3s2)CC1 [pictilisib]
How it was run: as §1

[3] = compound: C[C@@H](Oc1cc(-c2cnn(C3CCNCC3)c2)cnc1N)c1c(Cl)ccc(F)c1Cl [crizotinib]
How it was run: as §1

[4] = compound: C[C@H](C1=CC=C(C=C1)C(=O)NC2=C3C=CNC3=NC=C2)N
How it was run: as §1

[5] = compound: C[C@H](Nc1ncnc2nc[nH]c12)c1cc2cccc(Cl)c2c(=O)n1-c1ccccc1 [duvelisib]
How it was run: as §1

[6] = compound: Cc1cc(Nc2cc(CN3CCOCC3)c3nc(C)c(Cc4ccc(Cl)cc4F)n3n2)n[nH]1 [gandotinib]
How it was run: as §1

[7] = compound: Cc1cc(Nc2cc(N3CCN(C)CC3)nc(Sc3ccc(NC(=O)C4CC4)cc3)n2)n[nH]1 [tozasertib]
How it was run: as §1

[8] = compound: Cc1ccc(-n2nc(C(C)(C)C)cc2NC(=O)Nc2ccc(OCCN3CCOCC3)c3ccccc23)cc1 [doramapimod]
How it was run: as §1

[9] = compound: Cc1ccc(NC(=O)c2ccc(CN3CC[C@H](N(C)C)C3)c(C(F)(F)F)c2)cc1Nc1nccc(-c2cncnc2)n1 [bafetinib]
How it was run: as §1

[10] = compound: Cc1cccc(CC(=O)N2CCc3c2ccc(-c2cn(C)c4ncnc(N)c24)c3F)n1
How it was run: as §1

[11] = compound: Cc1cn(-c2cc(NC(=O)c3ccc(C)c(Nc4nccc(-c5cccnc5)n4)c3)cc(C(F)(F)F)c2)cn1 [nilotinib]
How it was run: as §1

[12] = compound: Cc1nc(Nc2n[nH]c3c2CN(C(=O)N[C@H](CN(C)C)c2ccccc2)C3(C)C)c2sccc2n1
How it was run: as §1

[13] = compound: Cc1nc(Nc2ncc(C(=O)Nc3c(C)cccc3Cl)s2)cc(N2CCN(CCO)CC2)n1 [dasatinib]
How it was run: as §1

[14] = compound: Cc1ncc(-c2ccnc(Nc3ccc(S(C)(=O)=O)cc3)n2)n1C(C)C
How it was run: as §1

[15] = compound: Cn1cc(-c2ccc3c(c2)CCN3C(=O)Cc2cccc(C(F)(F)F)c2)c2c(N)ncnc21
How it was run: as §1

[16] = compound: Cn1cc(CNCC2CCN(c3ncc(C(=O)NO)cn3)CC2)c2ccccc21 [quisinostat]
How it was run: as §1

[17] = compound: Cn1cncc1[C@@](N)(c1ccc(Cl)cc1)c1ccc2c(c1)c(-c1cccc(Cl)c1)cc(=O)n2C [tipifarnib]
How it was run: as §1

[18] = compound: NC(=O)Nc1cc(-c2cccc(F)c2)sc1C(=O)N[C@H]1CCCNC1
How it was run: as §1

[19] = compound: NC(=O)c1cnc(N[C@@H]2CCCC[C@@H]2N)nc1Nc1cccc(-n2nccn2)c1
How it was run: as §1

[20] = compound: NC1(c2ccc(-c3nc4ccn5c(=O)[nH]nc5c4cc3-c3ccccc3)cc2)CCC1
How it was run: as §1

Target | log2 fold change [1] | log2 fold change [2] | log2 fold change [3] | log2 fold change [4] | log2 fold change [5] | log2 fold change [6] | log2 fold change [7] | log2 fold change [8] | log2 fold change [9] | log2 fold change [10] | log2 fold change [11] | log2 fold change [12] | log2 fold change [13] | log2 fold change [14] | log2 fold change [15] | log2 fold change [16] | log2 fold change [17] | log2 fold change [18] | log2 fold change [19] | log2 fold change [20]
MRPL39 isoform 2 (UniProt Q9NYK5) | inactive: 0.006 | inactive: -0.036 | inactive: -0.021 | inactive: 0.138 | inactive: 0.006 | inactive: 0.03 | inactive: 0.066 | inactive: 0.035 | inactive: 0.006 | inactive: -0.059 | inactive: 0.011 | inactive: 0.04 | inactive: 0.03 | inactive: 0.009 | inactive: 0.05 | inactive: -0.038 | inactive: -0.045 | inactive: -0.002 | inactive: 0.027 | inactive: -0.031
MT-CYB (UniProt P00156) | inactive: -0.054 | inactive: -0.025 | inactive: -0.126 | active: -0.856 | inactive: 0.094 | active: 0.568 | inactive: -0.074 | inactive: -0.05 | inactive: 0.05 | inactive: 0.385 | inactive: 0.063 | inactive: -0.081 | inactive: 0.16 | inactive: 0.011 | inactive: 0 | inactive: -0.131 | inactive: -0.184 | inactive: -0.003 | inactive: -0.037 | inactive: -0.06
MRPL27 (UniProt Q9P0M9) | inactive: 0.02 | inactive: 0.017 | inactive: -0.046 | active: 0.658 | inactive: 0.02 | inactive: -0.249 | inactive: 0.029 | inactive: 0.011 | inactive: 0.012 | inactive: -0.076 | inactive: -0.112 | inactive: 0.027 | inactive: 0.089 | inactive: -0.039 | inactive: 0.091 | inactive: -0.012 | inactive: 0.015 | inactive: -0.006 | inactive: 0.072 | inactive: -0.064
MSRB2 (UniProt Q9Y3D2) | inactive: -0.029 | inactive: -0.028 | inactive: 0.013 | inactive: 0.027 | inactive: -0.057 | inactive: 0.053 | inactive: 0.078 | inactive: 0.022 | inactive: 0.029 | inactive: -0.021 | inactive: 0.14 | inactive: -0.083 | inactive: 0.01 | inactive: 0.035 | inactive: -0.013 | inactive: -0.035 | inactive: 0.005 | inactive: -0.039 | inactive: 0.031 | inactive: 0.031
MTDH (UniProt E5RJU9) | inactive: -0.281 | inactive: -0.05 | inactive: 0.204 | inactive: -0.218 | inactive: -0.243 | inactive: 0.141 | inactive: 0.212 | inactive: -0.037 | inactive: 0.104 | inactive: 0.074 | inactive: 0.358 | inactive: -0.138 | inactive: 0.111 | inactive: -0.064 | inactive: 0.15 | inactive: -0.128 | inactive: 0.055 | inactive: -0.063 | inactive: 0.071 | inactive: -0.102
MT-ND4 (UniProt P03905) | inactive: -0.026 | inactive: -0.099 | inactive: -0.125 | inactive: -0.035 | inactive: 0.04 | inactive: -0.011 | inactive: -0.038 | inactive: 0.061 | inactive: -0.125 | inactive: 0.072 | inactive: 0.019 | inactive: -0.039 | inactive: -0.13 | inactive: 0.106 | inactive: -0.031 | inactive: -0.145 | inactive: -0.012 | inactive: 0.036 | inactive: 0.012 | inactive: -0.017
MRPS35 (UniProt P82673) | inactive: -0.002 | inactive: -0.003 | inactive: -0.044 | inactive: 0.033 | inactive: 0.005 | inactive: 0.002 | inactive: 0.01 | inactive: 0.055 | inactive: 0.001 | inactive: 0.008 | inactive: 0.053 | inactive: -0.055 | inactive: -0.026 | inactive: -0.052 | inactive: 0.019 | inactive: -0.06 | inactive: 0.025 | inactive: 0.016 | inactive: 0.009 | inactive: 0.039
MRPS28 (UniProt Q9Y2Q9) | inactive: 0.054 | inactive: 0.028 | inactive: 0.075 | inactive: 0.07 | inactive: 0.022 | inactive: -0.06 | inactive: 0.023 | inactive: -0.059 | inactive: -0.001 | inactive: -0.064 | inactive: -0.08 | inactive: 0.048 | inactive: 0.003 | inactive: -0.005 | inactive: -0.014 | inactive: 0.042 | inactive: 0.003 | inactive: -0.002 | inactive: 0.065 | inactive: 0.005
MTRF1L (UniProt Q9UGC7) | inactive: 0.026 | inactive: -0.012 | inactive: -0.013 | inactive: -0.052 | inactive: -0.037 | inactive: 0.014 | inactive: -0.054 | inactive: 0.043 | inactive: -0.016 | inactive: 0.069 | inactive: 0.017 | inactive: 0.008 | inactive: 0.038 | inactive: -0.079 | inactive: -0.016 | inactive: -0.012 | inactive: 0.038 | inactive: -0.02 | inactive: 0.044 | inactive: -0.061
MSMO1 (UniProt Q15800) | inactive: 0.009 | inactive: -0.017 | inactive: -0.043 | inactive: -0.041 | inactive: 0.006 | inactive: 0.065 | inactive: -0.05 | inactive: -0.008 | inactive: -0.015 | inactive: 0.097 | inactive: 0.1 | inactive: -0.019 | inactive: 0.011 | inactive: 0.037 | inactive: 0.061 | inactive: 0.008 | inactive: -0.025 | inactive: -0.058 | inactive: 0.005 | inactive: -0.061
MRPL44 (UniProt Q9H9J2) | inactive: -0.001 | inactive: -0.03 | inactive: -0.03 | inactive: 0.011 | inactive: 0.003 | inactive: -0.033 | inactive: 0.005 | inactive: 0.008 | inactive: -0.105 | inactive: 0.016 | inactive: 0.034 | inactive: -0.069 | inactive: -0.014 | inactive: -0.021 | inactive: 0.019 | inactive: -0.02 | inactive: 0.012 | inactive: 0.015 | inactive: 0.003 | inactive: -0.016
MRPL45 (UniProt Q9BRJ2) | inactive: -0.037 | inactive: 0.041 | inactive: 0.051 | inactive: -0.045 | inactive: 0.051 | inactive: 0.027 | inactive: -0.008 | inactive: -0.025 | inactive: -0.019 | inactive: 0 | inactive: -0.122 | inactive: 0.019 | inactive: -0.018 | inactive: 0.036 | inactive: 0.012 | inactive: -0.038 | inactive: -0.049 | inactive: 0.072 | inactive: -0.017 | inactive: 0.002
MTMR1 (UniProt Q13613) | inactive: 0.033 | inactive: 0.015 | inactive: 0.07 | inactive: 0.097 | inactive: -0.036 | inactive: -0.067 | inactive: -0.01 | inactive: -0.049 | inactive: -0.032 | inactive: -0.017 | inactive: 0.001 | inactive: -0.009 | inactive: -0.014 | inactive: 0.025 | inactive: 0.039 | inactive: 0.15 | inactive: 0 | inactive: -0.016 | inactive: 0.023 | inactive: -0.013
MTMR14 (UniProt Q8NCE2) | inactive: 0.013 | inactive: -0.044 | inactive: -0.029 | inactive: -0.026 | inactive: 0.017 | inactive: 0.037 | inactive: 0.034 | inactive: 0.024 | inactive: -0.12 | inactive: 0.081 | inactive: -0.008 | inactive: 0.024 | inactive: -0.02 | inactive: 0.016 | inactive: 0.01 | inactive: -0.006 | inactive: -0.058 | inactive: 0.025 | inactive: 0.053 | inactive: -0.073
MRPL38 (UniProt Q96DV4) | inactive: -0.078 | inactive: -0.078 | inactive: -0.064 | inactive: 0.058 | inactive: -0.016 | inactive: -0.073 | inactive: 0.078 | inactive: -0.018 | inactive: -0.054 | inactive: 0.009 | inactive: 0.009 | inactive: -0.009 | inactive: -0.017 | inactive: 0.077 | inactive: 0.135 | inactive: -0.013 | inactive: 0.013 | inactive: 0.01 | inactive: 0.064 | inactive: -0.059

Limited to log2 fold change [10] (2 entries from above):
Target | log2 fold change [10]
MRPL44 (UniProt Q9H9J2) | inactive: 0.016
MRPL45 (UniProt Q9BRJ2) | inactive: 0
